The chains behind the UniProt entries cited, without tags or fusion partners. Where a name states a change or a piece, a line headed by the entry shows the natural chain unless it says otherwise.
UniProt Q08945, whole entry: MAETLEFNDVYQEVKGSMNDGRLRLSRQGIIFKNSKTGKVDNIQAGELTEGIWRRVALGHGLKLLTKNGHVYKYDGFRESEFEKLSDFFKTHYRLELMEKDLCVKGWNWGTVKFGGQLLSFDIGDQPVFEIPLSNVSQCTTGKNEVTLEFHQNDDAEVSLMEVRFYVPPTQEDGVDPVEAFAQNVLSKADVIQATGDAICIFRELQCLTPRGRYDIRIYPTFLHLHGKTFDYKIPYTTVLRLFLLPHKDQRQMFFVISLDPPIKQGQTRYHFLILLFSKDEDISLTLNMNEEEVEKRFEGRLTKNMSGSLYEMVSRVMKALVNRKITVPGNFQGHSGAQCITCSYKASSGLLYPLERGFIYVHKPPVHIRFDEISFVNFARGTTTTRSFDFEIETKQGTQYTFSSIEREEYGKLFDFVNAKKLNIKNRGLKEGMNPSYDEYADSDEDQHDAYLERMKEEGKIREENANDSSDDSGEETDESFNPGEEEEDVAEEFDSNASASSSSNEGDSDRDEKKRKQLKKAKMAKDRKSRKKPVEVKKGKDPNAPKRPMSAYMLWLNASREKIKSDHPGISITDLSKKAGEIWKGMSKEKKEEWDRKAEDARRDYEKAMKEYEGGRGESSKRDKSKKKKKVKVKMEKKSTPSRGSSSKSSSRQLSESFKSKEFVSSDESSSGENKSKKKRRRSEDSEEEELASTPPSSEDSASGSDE
UniProt Q9BWM5: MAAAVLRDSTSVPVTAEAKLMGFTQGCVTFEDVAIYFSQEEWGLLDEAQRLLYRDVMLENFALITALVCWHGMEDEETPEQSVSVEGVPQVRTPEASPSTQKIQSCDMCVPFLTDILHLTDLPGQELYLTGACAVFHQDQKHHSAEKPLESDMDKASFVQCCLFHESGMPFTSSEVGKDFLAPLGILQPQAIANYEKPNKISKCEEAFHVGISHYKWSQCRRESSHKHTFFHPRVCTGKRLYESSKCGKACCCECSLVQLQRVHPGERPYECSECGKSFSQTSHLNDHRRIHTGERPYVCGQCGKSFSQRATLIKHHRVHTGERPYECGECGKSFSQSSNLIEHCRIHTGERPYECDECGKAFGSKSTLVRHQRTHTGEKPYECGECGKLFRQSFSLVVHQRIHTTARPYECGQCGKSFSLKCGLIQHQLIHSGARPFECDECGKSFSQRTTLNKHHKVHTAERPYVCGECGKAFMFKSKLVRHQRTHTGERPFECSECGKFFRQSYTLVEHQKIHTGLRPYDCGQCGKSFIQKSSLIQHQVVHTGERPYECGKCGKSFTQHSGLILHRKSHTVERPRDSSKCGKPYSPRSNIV
UniProt Q8IW36: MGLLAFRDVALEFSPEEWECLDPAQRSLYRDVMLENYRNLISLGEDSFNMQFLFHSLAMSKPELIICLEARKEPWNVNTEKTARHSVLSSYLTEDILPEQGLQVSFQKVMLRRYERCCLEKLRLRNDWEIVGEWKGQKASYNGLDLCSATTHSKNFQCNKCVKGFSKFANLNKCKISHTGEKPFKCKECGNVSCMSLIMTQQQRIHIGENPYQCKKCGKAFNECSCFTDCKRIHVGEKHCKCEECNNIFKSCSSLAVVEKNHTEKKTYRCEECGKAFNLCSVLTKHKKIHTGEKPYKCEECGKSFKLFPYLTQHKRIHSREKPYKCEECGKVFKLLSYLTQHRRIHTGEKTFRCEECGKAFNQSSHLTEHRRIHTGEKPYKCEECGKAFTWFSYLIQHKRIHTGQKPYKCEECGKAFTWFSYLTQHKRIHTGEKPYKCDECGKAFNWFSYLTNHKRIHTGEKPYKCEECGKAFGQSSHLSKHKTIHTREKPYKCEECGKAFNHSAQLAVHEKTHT
UniProt P43694: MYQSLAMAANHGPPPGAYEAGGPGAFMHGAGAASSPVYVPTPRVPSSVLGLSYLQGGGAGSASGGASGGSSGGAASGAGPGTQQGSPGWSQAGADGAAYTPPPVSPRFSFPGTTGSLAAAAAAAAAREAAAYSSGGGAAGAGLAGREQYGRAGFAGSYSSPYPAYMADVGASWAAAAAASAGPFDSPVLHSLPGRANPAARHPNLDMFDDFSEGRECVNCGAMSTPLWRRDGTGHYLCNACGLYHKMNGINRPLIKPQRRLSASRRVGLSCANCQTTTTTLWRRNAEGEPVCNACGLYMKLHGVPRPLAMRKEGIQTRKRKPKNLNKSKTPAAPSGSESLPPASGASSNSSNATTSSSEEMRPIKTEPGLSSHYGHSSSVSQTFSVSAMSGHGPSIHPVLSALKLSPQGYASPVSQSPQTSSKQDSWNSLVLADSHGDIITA
UniProt P20719: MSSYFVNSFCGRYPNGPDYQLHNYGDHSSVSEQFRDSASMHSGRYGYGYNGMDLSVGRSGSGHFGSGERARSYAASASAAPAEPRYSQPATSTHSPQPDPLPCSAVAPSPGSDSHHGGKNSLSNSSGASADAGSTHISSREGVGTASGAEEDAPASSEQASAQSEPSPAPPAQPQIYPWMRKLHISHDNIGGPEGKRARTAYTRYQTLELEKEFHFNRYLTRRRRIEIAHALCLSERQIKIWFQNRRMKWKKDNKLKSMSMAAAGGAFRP
UniProt Q8NC26: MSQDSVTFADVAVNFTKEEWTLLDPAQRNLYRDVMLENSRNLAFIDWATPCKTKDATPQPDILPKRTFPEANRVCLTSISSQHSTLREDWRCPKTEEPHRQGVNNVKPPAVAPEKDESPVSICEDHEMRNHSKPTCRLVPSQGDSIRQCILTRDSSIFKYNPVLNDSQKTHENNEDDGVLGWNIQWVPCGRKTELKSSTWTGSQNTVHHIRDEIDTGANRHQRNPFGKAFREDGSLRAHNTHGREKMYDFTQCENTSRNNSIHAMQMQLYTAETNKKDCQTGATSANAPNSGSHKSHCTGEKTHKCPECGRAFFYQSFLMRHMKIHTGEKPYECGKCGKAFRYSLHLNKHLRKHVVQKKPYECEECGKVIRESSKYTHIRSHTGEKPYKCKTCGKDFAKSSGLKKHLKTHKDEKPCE
UniProt P37231: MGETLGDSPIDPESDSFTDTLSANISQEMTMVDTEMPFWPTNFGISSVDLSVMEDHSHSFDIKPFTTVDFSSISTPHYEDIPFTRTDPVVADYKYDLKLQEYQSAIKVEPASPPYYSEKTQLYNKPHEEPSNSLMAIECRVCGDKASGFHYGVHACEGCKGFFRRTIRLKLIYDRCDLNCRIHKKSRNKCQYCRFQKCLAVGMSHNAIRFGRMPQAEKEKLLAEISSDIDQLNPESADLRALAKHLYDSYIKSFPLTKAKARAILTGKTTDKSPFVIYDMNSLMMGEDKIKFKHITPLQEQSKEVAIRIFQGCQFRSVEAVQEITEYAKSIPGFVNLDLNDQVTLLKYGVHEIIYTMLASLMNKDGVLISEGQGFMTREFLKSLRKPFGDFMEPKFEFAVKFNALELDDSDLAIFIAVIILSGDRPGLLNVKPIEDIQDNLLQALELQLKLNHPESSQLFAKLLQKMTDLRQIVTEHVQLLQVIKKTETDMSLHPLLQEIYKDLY
UniProt P19793: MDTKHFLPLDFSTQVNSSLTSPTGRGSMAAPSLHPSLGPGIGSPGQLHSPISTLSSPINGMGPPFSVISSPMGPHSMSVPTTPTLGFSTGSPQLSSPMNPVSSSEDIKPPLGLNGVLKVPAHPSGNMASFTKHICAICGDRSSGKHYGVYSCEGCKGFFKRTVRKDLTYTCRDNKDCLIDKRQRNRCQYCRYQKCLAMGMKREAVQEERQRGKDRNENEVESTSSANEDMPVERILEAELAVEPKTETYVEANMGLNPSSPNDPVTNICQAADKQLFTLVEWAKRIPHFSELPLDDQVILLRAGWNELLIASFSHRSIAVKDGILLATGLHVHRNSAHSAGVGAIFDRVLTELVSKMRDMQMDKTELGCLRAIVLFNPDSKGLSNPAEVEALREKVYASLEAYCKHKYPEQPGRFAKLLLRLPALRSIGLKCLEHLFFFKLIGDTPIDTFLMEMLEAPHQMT
UniProt O00716: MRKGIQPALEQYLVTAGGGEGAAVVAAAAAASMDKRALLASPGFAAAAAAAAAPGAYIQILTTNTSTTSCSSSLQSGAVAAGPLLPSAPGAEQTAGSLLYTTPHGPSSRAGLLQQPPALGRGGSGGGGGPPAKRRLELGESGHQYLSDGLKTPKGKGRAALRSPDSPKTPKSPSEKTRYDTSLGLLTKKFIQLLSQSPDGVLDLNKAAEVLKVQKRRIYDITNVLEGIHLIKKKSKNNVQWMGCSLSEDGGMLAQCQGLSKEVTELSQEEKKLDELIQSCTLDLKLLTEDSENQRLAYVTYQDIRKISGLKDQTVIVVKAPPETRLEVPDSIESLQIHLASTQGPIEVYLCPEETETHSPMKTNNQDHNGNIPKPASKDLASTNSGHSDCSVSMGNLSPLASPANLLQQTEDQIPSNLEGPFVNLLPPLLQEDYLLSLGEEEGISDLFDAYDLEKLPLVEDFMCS
UniProt P23771: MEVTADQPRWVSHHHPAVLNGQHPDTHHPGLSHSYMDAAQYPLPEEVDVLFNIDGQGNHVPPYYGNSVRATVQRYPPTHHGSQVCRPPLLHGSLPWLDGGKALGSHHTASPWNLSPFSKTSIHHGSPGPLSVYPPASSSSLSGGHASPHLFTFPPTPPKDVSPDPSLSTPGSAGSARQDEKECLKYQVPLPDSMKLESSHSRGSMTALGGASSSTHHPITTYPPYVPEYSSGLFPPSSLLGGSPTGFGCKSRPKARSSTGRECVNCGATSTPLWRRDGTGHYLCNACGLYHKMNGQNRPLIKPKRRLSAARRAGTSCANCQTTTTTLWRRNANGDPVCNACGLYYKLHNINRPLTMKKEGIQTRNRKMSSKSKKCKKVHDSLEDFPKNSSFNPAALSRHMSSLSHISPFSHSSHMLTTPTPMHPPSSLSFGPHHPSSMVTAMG
UniProt P05549: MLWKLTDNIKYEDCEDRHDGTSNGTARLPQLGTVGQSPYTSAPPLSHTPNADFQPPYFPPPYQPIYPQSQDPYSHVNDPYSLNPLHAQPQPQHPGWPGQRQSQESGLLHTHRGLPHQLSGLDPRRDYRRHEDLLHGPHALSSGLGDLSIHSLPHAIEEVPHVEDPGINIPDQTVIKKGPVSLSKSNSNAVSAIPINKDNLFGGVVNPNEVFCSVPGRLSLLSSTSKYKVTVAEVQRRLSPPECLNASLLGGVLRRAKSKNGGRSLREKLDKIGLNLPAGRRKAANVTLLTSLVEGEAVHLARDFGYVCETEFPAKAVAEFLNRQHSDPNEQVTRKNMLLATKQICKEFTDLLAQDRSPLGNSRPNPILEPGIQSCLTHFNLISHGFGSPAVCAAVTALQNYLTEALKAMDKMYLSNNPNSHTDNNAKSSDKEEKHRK

In paper PMC3762332:

Columns and labels:
Test in all cases: protein microarray
Conditions in all cases: 10-fold cold unmethylated competitor; 5mC at CpG (SssI, both strands); recombinant protein; protein details: GST (N-terminal); label: Cy5
SSRP1 (Homo sapiens) = SSRP1 (Homo sapiens) (UniProt Q08945)
SCAPER (Homo sapiens) = biological target: T1, SCAPER (Homo sapiens) (UniProt Q9BY12)
T1 sequence (looked up, limits assumed): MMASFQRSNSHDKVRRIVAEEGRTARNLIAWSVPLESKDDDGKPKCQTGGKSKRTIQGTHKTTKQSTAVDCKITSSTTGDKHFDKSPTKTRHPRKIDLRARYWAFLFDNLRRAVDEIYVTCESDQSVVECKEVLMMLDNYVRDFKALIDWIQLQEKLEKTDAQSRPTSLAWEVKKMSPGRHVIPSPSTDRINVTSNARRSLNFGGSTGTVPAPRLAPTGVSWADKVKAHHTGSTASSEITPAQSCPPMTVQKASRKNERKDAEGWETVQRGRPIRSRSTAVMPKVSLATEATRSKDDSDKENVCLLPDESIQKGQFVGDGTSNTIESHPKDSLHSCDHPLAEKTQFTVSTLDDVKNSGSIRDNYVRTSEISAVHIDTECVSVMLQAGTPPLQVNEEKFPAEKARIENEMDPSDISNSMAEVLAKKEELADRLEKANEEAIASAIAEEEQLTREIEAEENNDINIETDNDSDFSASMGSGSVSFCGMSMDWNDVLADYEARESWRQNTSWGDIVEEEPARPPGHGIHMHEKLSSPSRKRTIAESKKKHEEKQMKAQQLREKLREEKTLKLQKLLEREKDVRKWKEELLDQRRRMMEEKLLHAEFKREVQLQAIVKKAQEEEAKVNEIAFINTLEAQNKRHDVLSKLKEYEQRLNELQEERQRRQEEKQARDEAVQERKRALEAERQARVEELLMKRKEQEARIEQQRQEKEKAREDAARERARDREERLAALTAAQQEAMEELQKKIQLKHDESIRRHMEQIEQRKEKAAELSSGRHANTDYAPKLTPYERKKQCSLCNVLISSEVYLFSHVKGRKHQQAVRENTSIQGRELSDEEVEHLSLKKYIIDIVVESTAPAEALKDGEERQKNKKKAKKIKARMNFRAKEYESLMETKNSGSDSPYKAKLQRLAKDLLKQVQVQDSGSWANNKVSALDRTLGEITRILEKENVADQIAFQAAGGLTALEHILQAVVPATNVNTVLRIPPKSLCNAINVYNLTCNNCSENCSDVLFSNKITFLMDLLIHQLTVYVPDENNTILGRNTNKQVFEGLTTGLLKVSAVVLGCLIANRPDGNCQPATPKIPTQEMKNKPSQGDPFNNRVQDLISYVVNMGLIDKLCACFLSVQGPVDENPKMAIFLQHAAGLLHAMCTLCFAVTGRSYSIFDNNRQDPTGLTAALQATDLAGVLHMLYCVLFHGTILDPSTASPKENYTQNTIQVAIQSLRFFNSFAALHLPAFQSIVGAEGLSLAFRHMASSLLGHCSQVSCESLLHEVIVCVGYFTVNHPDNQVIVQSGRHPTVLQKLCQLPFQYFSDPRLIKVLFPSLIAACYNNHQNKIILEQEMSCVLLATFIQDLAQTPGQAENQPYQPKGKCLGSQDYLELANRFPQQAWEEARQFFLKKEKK

ZNF416 (Homo sapiens) = ZNF416 (Homo sapiens) (UniProt Q9BWM5)
ZNF695 (Homo sapiens) = ZNF695 (Homo sapiens) (UniProt Q8IW36)
GATA4 (Homo sapiens) = GATA4 (Homo sapiens) (UniProt P43694)
HOXA5 (Homo sapiens) = HOXA5 (Homo sapiens) (UniProt P20719)
ZNF114 (Homo sapiens) = ZNF114 (Homo sapiens) (UniProt Q8NC26)
RNF138 (Homo sapiens) = biological target: T2, RNF138 (Homo sapiens) (UniProt Q8WVD3)
T2 sequence (looked up, limits assumed): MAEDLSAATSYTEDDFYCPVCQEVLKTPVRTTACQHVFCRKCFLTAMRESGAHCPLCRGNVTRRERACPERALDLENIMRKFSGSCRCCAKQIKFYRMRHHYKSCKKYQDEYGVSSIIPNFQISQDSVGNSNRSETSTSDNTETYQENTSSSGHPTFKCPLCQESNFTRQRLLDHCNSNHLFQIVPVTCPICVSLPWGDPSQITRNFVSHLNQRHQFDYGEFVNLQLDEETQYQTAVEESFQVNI

PPARG (Homo sapiens) = PPARG (Homo sapiens) (UniProt P37231)
BCL3 (Homo sapiens) = biological target: T3, BCL3 (Homo sapiens) (UniProt P20749)
T3 sequence (looked up, limits assumed): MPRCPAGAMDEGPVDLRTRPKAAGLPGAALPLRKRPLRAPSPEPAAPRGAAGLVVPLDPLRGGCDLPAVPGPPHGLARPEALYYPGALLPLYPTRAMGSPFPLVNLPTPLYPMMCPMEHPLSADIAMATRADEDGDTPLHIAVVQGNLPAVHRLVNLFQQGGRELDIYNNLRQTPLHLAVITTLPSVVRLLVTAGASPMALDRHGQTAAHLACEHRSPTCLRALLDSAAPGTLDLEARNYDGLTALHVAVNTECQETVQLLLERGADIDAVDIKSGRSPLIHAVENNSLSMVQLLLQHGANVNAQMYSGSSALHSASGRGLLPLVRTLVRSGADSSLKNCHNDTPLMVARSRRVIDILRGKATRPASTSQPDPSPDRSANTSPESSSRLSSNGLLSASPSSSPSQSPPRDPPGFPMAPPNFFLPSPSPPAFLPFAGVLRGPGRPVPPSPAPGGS

ZCCHC7 (Homo sapiens) = biological target: T4, ZCCHC7 (Homo sapiens) (UniProt Q8N3Z6)
T4 sequence (looked up, limits assumed): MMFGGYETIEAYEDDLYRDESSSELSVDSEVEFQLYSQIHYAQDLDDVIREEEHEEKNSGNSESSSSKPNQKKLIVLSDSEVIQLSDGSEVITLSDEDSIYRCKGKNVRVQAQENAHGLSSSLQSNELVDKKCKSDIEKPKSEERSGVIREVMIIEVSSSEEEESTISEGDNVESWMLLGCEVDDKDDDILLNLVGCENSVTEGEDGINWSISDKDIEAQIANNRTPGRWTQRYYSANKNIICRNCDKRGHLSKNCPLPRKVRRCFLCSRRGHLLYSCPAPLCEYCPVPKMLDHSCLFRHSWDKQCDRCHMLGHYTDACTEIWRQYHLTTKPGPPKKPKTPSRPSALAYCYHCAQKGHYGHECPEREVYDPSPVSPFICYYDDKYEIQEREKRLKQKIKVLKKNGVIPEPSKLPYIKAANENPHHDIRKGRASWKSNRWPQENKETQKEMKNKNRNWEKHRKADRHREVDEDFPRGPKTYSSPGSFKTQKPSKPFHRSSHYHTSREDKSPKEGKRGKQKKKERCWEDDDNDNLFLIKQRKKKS

RXRA (Homo sapiens) = RXRA (Homo sapiens) (UniProt P19793)
E2F3 (Homo sapiens) = E2F3 (Homo sapiens) (UniProt O00716)
SMAD4 (Homo sapiens) = biological target: T5, SMAD4 (Homo sapiens) (UniProt Q13485)
T5 sequence (looked up, limits assumed): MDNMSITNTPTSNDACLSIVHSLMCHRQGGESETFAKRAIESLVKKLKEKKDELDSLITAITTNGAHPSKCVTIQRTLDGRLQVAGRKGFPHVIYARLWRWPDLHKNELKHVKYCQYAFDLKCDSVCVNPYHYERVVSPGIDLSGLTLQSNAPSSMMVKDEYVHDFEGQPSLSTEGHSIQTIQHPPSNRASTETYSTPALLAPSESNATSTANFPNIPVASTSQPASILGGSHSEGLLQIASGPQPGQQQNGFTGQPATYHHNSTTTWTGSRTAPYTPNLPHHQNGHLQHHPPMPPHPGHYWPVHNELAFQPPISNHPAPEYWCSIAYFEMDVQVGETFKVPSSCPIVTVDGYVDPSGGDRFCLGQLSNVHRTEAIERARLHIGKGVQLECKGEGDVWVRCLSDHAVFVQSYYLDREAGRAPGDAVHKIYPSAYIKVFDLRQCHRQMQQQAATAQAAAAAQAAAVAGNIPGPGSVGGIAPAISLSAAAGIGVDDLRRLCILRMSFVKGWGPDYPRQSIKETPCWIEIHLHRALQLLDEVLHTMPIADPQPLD

GATA3 (Homo sapiens) = GATA3 (Homo sapiens) (UniProt P23771)
NRF1 (Homo sapiens) = biological target: T6, NRF1 (Homo sapiens) (UniProt Q16656)
T6 sequence (looked up, limits assumed): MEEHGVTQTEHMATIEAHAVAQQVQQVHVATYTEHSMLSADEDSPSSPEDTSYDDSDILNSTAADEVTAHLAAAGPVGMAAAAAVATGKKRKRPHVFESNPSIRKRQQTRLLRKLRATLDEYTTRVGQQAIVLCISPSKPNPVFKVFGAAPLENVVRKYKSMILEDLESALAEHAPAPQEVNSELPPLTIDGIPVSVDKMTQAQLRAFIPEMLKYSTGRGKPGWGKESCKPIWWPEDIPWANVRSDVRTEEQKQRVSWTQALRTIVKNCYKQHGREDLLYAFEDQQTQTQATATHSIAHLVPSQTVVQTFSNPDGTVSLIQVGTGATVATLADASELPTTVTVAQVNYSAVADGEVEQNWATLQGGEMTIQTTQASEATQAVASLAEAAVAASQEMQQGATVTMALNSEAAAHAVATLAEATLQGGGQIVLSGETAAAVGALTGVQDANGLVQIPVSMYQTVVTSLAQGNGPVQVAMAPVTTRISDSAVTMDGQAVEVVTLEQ

TFAP2A (Homo sapiens) = TFAP2A (Homo sapiens) (UniProt P05549)

Measured: binding result

TGGGCGCTTTTGGGCGCCCCTATAGTGAGTGCTATTA (double strand) [M315]
binds: SSRP1 (Homo sapiens) | SCAPER (Homo sapiens) | ZNF416 (Homo sapiens) | ZNF695 (Homo sapiens) | GATA4 (Homo sapiens) | HOXA5 (Homo sapiens) | ZNF114 (Homo sapiens) | RNF138 (Homo sapiens) | PPARG (Homo sapiens) | BCL3 (Homo sapiens) | ZCCHC7 (Homo sapiens) | RXRA (Homo sapiens) | E2F3 (Homo sapiens) | SMAD4 (Homo sapiens)

GCCTCGCAAAGCCTCGCCCCTATAGTGAGTGCTATTA (double strand) [M311]
binds: SCAPER (Homo sapiens) | ZNF416 (Homo sapiens) | ZNF695 (Homo sapiens) | GATA4 (Homo sapiens) | GATA3 (Homo sapiens) | HOXA5 (Homo sapiens) | ZNF114 (Homo sapiens) | RNF138 (Homo sapiens) | PPARG (Homo sapiens) | BCL3 (Homo sapiens) | ZCCHC7 (Homo sapiens) | RXRA (Homo sapiens) | E2F3 (Homo sapiens) | SMAD4 (Homo sapiens)

TTCCCGAGGGTTTTTCCCGAGGGCCCTATAGTGAGTGCTATTA (double strand) [M380]
binds: SCAPER (Homo sapiens) | ZNF416 (Homo sapiens) | ZNF695 (Homo sapiens) | GATA4 (Homo sapiens) | GATA3 (Homo sapiens) | NRF1 (Homo sapiens) | HOXA5 (Homo sapiens) | TFAP2A (Homo sapiens) | ZNF114 (Homo sapiens) | RNF138 (Homo sapiens) | PPARG (Homo sapiens) | ZCCHC7 (Homo sapiens) | RXRA (Homo sapiens) | E2F3 (Homo sapiens) | SMAD4 (Homo sapiens)

ACCCCGCAAAACCCCGCCCCTATAGTGAGTGCTATTA (double strand) [M317]
binds: SSRP1 (Homo sapiens) | SCAPER (Homo sapiens) | ZNF416 (Homo sapiens) | ZNF695 (Homo sapiens) | GATA4 (Homo sapiens) | HOXA5 (Homo sapiens) | ZNF114 (Homo sapiens) | RNF138 (Homo sapiens) | PPARG (Homo sapiens) | BCL3 (Homo sapiens) | ZCCHC7 (Homo sapiens) | RXRA (Homo sapiens) | E2F3 (Homo sapiens) | SMAD4 (Homo sapiens)

CGCAGCCAAACGCAGCCCCCTATAGTGAGTGCTATTA (double strand) [M86]
binds: SCAPER (Homo sapiens) | ZNF416 (Homo sapiens) | GATA4 (Homo sapiens) | GATA3 (Homo sapiens) | HOXA5 (Homo sapiens) | ZNF114 (Homo sapiens) | RNF138 (Homo sapiens) | PPARG (Homo sapiens) | BCL3 (Homo sapiens) | ZCCHC7 (Homo sapiens) | RXRA (Homo sapiens) | E2F3 (Homo sapiens)

Construct, isoform or probe ends are uncertain for at least one entry. For part of these data: Protein sequences can lack the tags named with them.
